Measurements from PubChem BioAssay AID216 (DTP/NCI, 2004).
The list does not hold the whole screen: it gathers tests that were run many times, whatever their T/C, doses with no T/C, and many T/C values between a quarter and a half above the control. Other doses and runs of a compound stand elsewhere. T/C: endpoint of the treated group in % of that of the vehicle group. Some doses have a count of surviving animals in place of a T/C: the source holds a T/C of zero for them, seemingly a mark for toxic or unscored doses. Some survivor counts are full or nearly so, which does not show that the dose was tolerated: survival well below the control is almost never listed, so the zero probably covers shortened survival too. Survivors were counted at the toxicity check, usually on the fifth day, unless a day is given; later deaths do not show. Schedule codes are those of the source, taken here to give the interval after Q, in days (D) or hours (H), and the number of doses after X. Some schedule codes hold Z or #, which are not explained here. For survival time, this PubChem deposit counts one and a half times the control or more as active, and values a quarter to a half above the control carry no call in these data; other NCI protocols may use other cut-offs. Numbered stars: 1 amine (or outer) side, 2 acyl side, 3 side chain; on linkers, the order of the positions; unused ones are H or OH. Bridge positions count the residues as written; N and C are the ends. Square brackets hold non-standard residues; d marks the D form. Peptide text beside a SMILES is read from it. I, II: the chains in the order shown. Actinocin(9to1) = Cc1c2oc3c(C)ccc(C(=O)[*:1])c3nc-2c(C(=O)[*:2])c(N)c1=O; aThr = C[C@H](O)[C@H](N)C(=O)O; NMeV = CN[C@H](C(=O)O)C(C)C; Sar = CNCC(=O)O

Tested on: BDF1 mice, P288 leukemia ip, survival T/C
Assay: NCI In Vivo Anticancer Drug Screen. Data for tumor model P288 Lymphocytic Leukemia (intraperitoneal) in B6D2F1 (BDF1) mice
Conditions: T/C endpoint: survival time, mean or median, higher T/C = longer survival
Experimental: The antitumor activity of compounds was measured in mice bearing transplantable tumors. Survival or tumor size were measured and the results are expressed as the measurement made in the treated group (T) divided by the measurement made in the vehicle treated control group (C). The tumor model used in this assay is P288 Lymphocytic Leukemia (intraperitoneal) in B6D2F1 (BDF1) mice

[1] = dose: 400.0 mg/kg/injection, schedule: Q01DX010 (ip), vehicle: saline

Cc1c2oc3c(C)ccc(C(=O)N[C@@H]4C(=O)N[C@H](C(C)C)C(=O)N5CCC[C@H]5C(=O)N(C)CC(=O)N(C)[C@@H](C(C)C)C(=O)O[C@H]4C)c3nc-2c(C(=O)N[C@@H]2C(=O)N[C@H](C(C)C)C(=O)N3CCC[C@H]3C(=O)N(C)CC(=O)N(C)[C@@H](C(C)C)C(=O)O[C@H]2C)c(N)c1=O (I: [aThr][dV]P[Sar][NMeV] / II: [aThr][dV]P[Sar][NMeV]; ester I:1-I:C, II:1-II:C; linker I:N-II:N via Actinocin(9to1))
T/C (dose: 0.01 mg/kg/injection, schedule: Q01DX010 (ip), vehicle: other): 133 % of control | T/C (dose: 0.03 mg/kg/injection, schedule: Q01DX010 (ip), vehicle: other): 138 % of control | T/C (dose: 0.1 mg/kg/injection, schedule: Q01DX010 (ip), vehicle: other): 133 % of control

Nc1nc(N)c2nc(CNc3ccc(C(=O)NC(CCC(=O)O)C(=O)O)cc3)cnc2n1 (stereo not drawn)
survivor count (dose: 0.06 mg/kg/injection, schedule: Q01DX Z (ip), vehicle: saline): 5 of 6 | survivor count (dose: 0.12 mg/kg/injection, schedule: Q01DX Z (ip), vehicle: saline): 6 of 6 | survivor count (dose: 0.25 mg/kg/injection, schedule: Q01DX Z (ip), vehicle: saline): 5 of 6 | survivor count (dose: 0.5 mg/kg/injection, schedule: Q01DX Z (ip), vehicle: saline): 5 of 6

CC(=O)Nc1ccc(/C=N/Nc2ccc([N+](=O)[O-])cn2)cc1
survivor count (dose: 125.0 mg/kg/injection, schedule: Q01DX010 (ip), vehicle: saline): 6 of 6

CS(=O)(=O)OCC(O)C(O)COS(C)(=O)=O (stereo not drawn)
T/C [1]: 127 % of control

Clc1ccc(C(c2ccccc2Cl)C(Cl)Cl)cc1 (stereo not drawn)
survivor count (dose: 50.0 mg/kg/injection, schedule: Q01DX Z (sc), vehicle: steroid suspending solution): 40 of 60 | survivor count (dose: 100.0 mg/kg/injection, schedule: Q01DX Z (sc), vehicle: steroid suspending solution): 4 of 6

Clc1ncnc2nc[nH]c12
survivor count (dose: 15.0 mg/kg/injection, schedule: Q01DX010 (ip), vehicle: saline): 5 of 6 | survivor count (dose: 60.0 mg/kg/injection, schedule: Q01DX010 (ip), vehicle: saline): 6 of 6 | survivor count (dose: 500.0 mg/kg/injection, schedule: Q01DX Z (ip), vehicle: carboxymethylcellulose (CMC)): 0 of 6

S=c1nc[nH]c2nc[nH]c12
survivor count (dose: 5.0 mg/kg/injection, schedule: Q01DX010 (ip), vehicle: alkali diluted with saline): 5 of 6 | survivor count (dose: 10.0 mg/kg/injection, schedule: Q01DX010 (ip), vehicle: alkali diluted with saline): 6 of 6 | T/C (dose: 100.0 mg/kg/injection, schedule: Q01DX Z (ip), vehicle: other): 126 % of control

CCCCCCCCCCCCNCCCCCCCCCCCC
survivor count (dose: 120.0 mg/kg/injection, schedule: Q01DX Z (ip), vehicle: carboxymethylcellulose (CMC)): 4 of 6 | survivor count (dose: 240.0 mg/kg/injection, schedule: Q01DX Z (ip), vehicle: carboxymethylcellulose (CMC)): 4 of 6

COc1cc(-c2ccc(Nc3ccccc3C(=O)O)c(OC)c2)ccc1N
T/C (dose: 40.0 mg/kg/injection, schedule: Q01DX010 (ip), vehicle: saline): 129 % of control | survivor count (dose: 160.0 mg/kg/injection, schedule: Q01DX010 (ip), vehicle: saline): 2 of 7

CO[C@@H]1[C@@H](OC2OC(C)C(OC3CC(C)(O)C(OC(=O)CC(C)C)C(C)O3)C(N(C)C)C2O)[C@@H](CC=O)C[C@@H](C)C(=O)/C=C/C2O[C@H]2C[C@@H](C)OC(=O)C[C@H]1OC(C)=O (stereo partly drawn)
T/C [1]: 125 % of control

O[C@H](CN1CC1)[C@@H](O)CN1CC1
T/C (dose: 16.0 micrograms/kg/injection, schedule: Q01DX Z (ip), vehicle: carboxymethylcellulose (CMC)): 131 % of control | T/C (dose: 63.0 micrograms/kg/injection, schedule: Q01DX Z (ip), vehicle: carboxymethylcellulose (CMC)): 131 % of control | T/C (dose: 125.0 micrograms/kg/injection, schedule: Q01DX Z (ip), vehicle: carboxymethylcellulose (CMC)): 141 % of control | T/C (dose: 1000.0 micrograms/kg/injection, schedule: Q01DX Z (ip), vehicle: carboxymethylcellulose (CMC)): 130 % of control | survivor count (dose: 2000.0 micrograms/kg/injection, schedule: Q01DX Z (ip), vehicle: carboxymethylcellulose (CMC)): 6 of 6 | survivor count (dose: 4000.0 micrograms/kg/injection, schedule: Q01DX Z (ip), vehicle: carboxymethylcellulose (CMC)): 0 of 6
